Data as given in PubChem BioAssay AID602196 (INSERM, 2012).

Aim: 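Genes whose knock-down alters cisplatin killing of lung cancer cells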
Cells: human A549 lung cancer cells
Reagents: siRNA pair against human genes
Duration: 48 h transfection before cisplatin; time from cisplatin to read-out not stated
Treatment: cisplatin at a dose killing half of control-siRNA cells; exact dose and duration not given
Detection: 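Shift in cisplatin death relative to control siRNA, from -50 (all cells die) to +50 (no cells die); siRNAs harmful on their own scored 0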
Direction: two-siRNA summed score (-2 to +2): higher = both siRNAs protect from cisplatin killing; -2 means both sensitise; mean protection from cisplatin (shift in death): higher = protection from cisplatin killing
Call rule: 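siRNAs harmful alone (LDH or WST-1) get 0; others get +1 for less and -1 for more cisplatin killing; genes are active when the two siRNAs give the same sign, summing to ±2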
Meaning of the calls: active = both siRNAs shift cisplatin killing the same way; inactive = no consistent shift, or siRNA harmful alone
In all, the deposit lists about 23,000 reagents; this is an unselected part. In the full data, 455 (2%) were called active. 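Active includes both protection and sensitisation; some change values fall well beyond the stated -50 to +50 range.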 Entries without a mark were called inactive. Not all columns of the deposit are shown. Not given: the amount of reagent.

Knock-down of CCNY came out at: two-siRNA summed score (-2 to +2) = 0; mean protection from cisplatin (shift in death) (%) = 7.9.
For OR5I1, the entry reads two-siRNA summed score (-2 to +2) = 0; mean protection from cisplatin (shift in death) (%) = 1.3.
AZIN2 showed two-siRNA summed score (-2 to +2) = 0; mean protection from cisplatin (shift in death) (%) = 19.1.
With knock-down of CRTC3, the screen gave two-siRNA summed score (-2 to +2) = -1; mean protection from cisplatin (shift in death) (%) = -4.4.
Silencing of ELN resulted in: two-siRNA summed score (-2 to +2) = 0; mean protection from cisplatin (shift in death) (%) = 24.2.
LOC440422 gave two-siRNA summed score (-2 to +2) = 0; mean protection from cisplatin (shift in death) (%) = 7.6.
Knock-down of CEPT1 resulted in: two-siRNA summed score (-2 to +2) = 0; mean protection from cisplatin (shift in death) (%) = 1.3.
Against LOC441016, the entry reads two-siRNA summed score (-2 to +2) = 0; mean protection from cisplatin (shift in death) (%) = 20.6.
For BPIFC, the values are two-siRNA summed score (-2 to +2) = 0; mean protection from cisplatin (shift in death) (%) = -4.4.
Against ARL1, the entry reads two-siRNA summed score (-2 to +2) = 0; mean protection from cisplatin (shift in death) (%) = 1.8.
Against REXO1 the deposit lists two-siRNA summed score (-2 to +2) = -1; mean protection from cisplatin (shift in death) (%) = -12.1.
AP3B2 showed two-siRNA summed score (-2 to +2) = 0; mean protection from cisplatin (shift in death) (%) = 10.2.
RO60 showed two-siRNA summed score (-2 to +2) = 2 (active); mean protection from cisplatin (shift in death) (%) = 14.5.
After knock-down of SPC25, the record shows two-siRNA summed score (-2 to +2) = 0; mean protection from cisplatin (shift in death) (%) = -27.1.
With knock-down of IL12RB1, the record shows two-siRNA summed score (-2 to +2) = 1; mean protection from cisplatin (shift in death) (%) = 14.9.
After knock-down of PSMA6, the record shows two-siRNA summed score (-2 to +2) = 0; mean protection from cisplatin (shift in death) (%) = 9.6.
Against HBE1, the entry reads two-siRNA summed score (-2 to +2) = 0; mean protection from cisplatin (shift in death) (%) = -3.5.

3 of these entries, reformatted:
AP3B2
- two-siRNA summed score (-2 to +2): 0
- mean protection from cisplatin (shift in death) (%): 10.2

RO60
- two-siRNA summed score (-2 to +2): 2 (active)
- mean protection from cisplatin (shift in death) (%): 14.5

SPC25
- two-siRNA summed score (-2 to +2): 0
- mean protection from cisplatin (shift in death) (%): -27.1

The results go on:
For MC4R the deposit lists two-siRNA summed score (-2 to +2) = 0; mean protection from cisplatin (shift in death) (%) = -6.1.
Silencing of ADGRG2 resulted in: two-siRNA summed score (-2 to +2) = 0; mean protection from cisplatin (shift in death) (%) = 5.4.
Depletion of EPN2 gave: two-siRNA summed score (-2 to +2) = -1; mean protection from cisplatin (shift in death) (%) = -13.7.
Silencing of LOC441707 resulted in: two-siRNA summed score (-2 to +2) = 1; mean protection from cisplatin (shift in death) (%) = 13.3.
Depletion of RLF gave: two-siRNA summed score (-2 to +2) = -1; mean protection from cisplatin (shift in death) (%) = -3.6.
Knock-down of BEX4 resulted in: two-siRNA summed score (-2 to +2) = 0; mean protection from cisplatin (shift in death) (%) = -6.5.
After knock-down of LOC440274, the screen gave two-siRNA summed score (-2 to +2) = 0; mean protection from cisplatin (shift in death) (%) = 1.9.
TIMM17BP1 scored two-siRNA summed score (-2 to +2) = 0; mean protection from cisplatin (shift in death) (%) = -0.7.
For XKR8, the values are two-siRNA summed score (-2 to +2) = 0; mean protection from cisplatin (shift in death) (%) = 7.8.
With knock-down of ZNF79, the record shows two-siRNA summed score (-2 to +2) = 0; mean protection from cisplatin (shift in death) (%) = -4.6.
After knock-down of GGCX the results were two-siRNA summed score (-2 to +2) = 0; mean protection from cisplatin (shift in death) (%) = -3.2.
DLGAP5 scored two-siRNA summed score (-2 to +2) = -1; mean protection from cisplatin (shift in death) (%) = -21.9.
C22orf15 gave two-siRNA summed score (-2 to +2) = 0; mean protection from cisplatin (shift in death) (%) = 2.2.
With knock-down of UBP1, the screen gave two-siRNA summed score (-2 to +2) = 0; mean protection from cisplatin (shift in death) (%) = -7.2.
